{"source": "PubChem BioAssay AID504834", "about": "(National Center for Advancing Translational Sciences (NCATS), 2011)", "note": "In all, about 320,000 compounds went through this assay and about 22,000 (6.9%) were called active. Inconclusive results, whose numbers are uncertain, are shown with a selection of clear calls. The call rests on the fitted dose curve; in most records, active means well fitted inhibition curve with a large enough effect; inconclusive means small, poorly fitted or top-dose-only effect, or another doubt; inactive means no such curve, though single readings can be large or run the other way. Potencies beside an inconclusive call are fits to weak or partial responses and may not hold up. Potency means the concentration at half of the fitted maximal effect."}
{"assay": "Primary qHTS for delayed death inhibitors of the malarial parasite plastid, 96 hour incubation", "details": "P. falciparum luciferase reporter growth; series mostly up to 28.7 µM", "procedure,_shortened": "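Delayed-death screen, second-generation endpoint: infected erythrocytes, 2% hematocrit, 0.05% parasitemia final; 96 hours at 37 C, 5% CO2; luciferase detection reagent; luminescence decrease equals reduced growth.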"}
{"smiles": "Cn1cccc1CC(=O)N/N=C/c1ccc(C(C)(C)C)cc1", "Potency": "inactive"}
{"smiles": "CC(C)S(=O)(=O)c1csc(NC(=O)Nc2ccc(Cl)cc2)c1", "Potency": "active: 10.4 µM"}
{"smiles": "CCn1c(SCC(=O)NCCc2ccccc2)nnc1C(C)C", "Potency": "inconclusive: 10.4 µM [inhibitor, partial curve, poor fit]"}
{"smiles": "COc1ccc(-n2c(SCC(=O)/C(C#N)=C(\\C)N)nc3ccccc3c2=O)cc1OC", "Potency": "inconclusive: 9.28 µM [inhibitor, partial curve]"}
{"smiles": "CC1CN(CC(=O)Nc2ccccc2Sc2ccccc2)CC(C)O1", "note": "(stereo unspecified)", "Potency": "inconclusive: 13.1 µM [inhibitor, single point]"}
{"smiles": "COc1ccc(OC)c(S(=O)(=O)N2CCC3(CC2)OCCN3S(=O)(=O)c2cccs2)c1", "Potency": "active: 10.4 µM"}
{"smiles": "COc1ccc(C2C(C(=O)Nc3cccnc3)=C(C)Nc3nc(-c4cccs4)nn32)cc1OC", "note": "(stereo unspecified)", "Potency": "inactive"}
{"smiles": "O=S1(=O)N=C(SCCO)c2ccccc21", "Potency": "inconclusive: 10.4 µM [inhibitor, single point]"}
{"smiles": "CCOC(=O)N/N=C\\c1ccc([N+](=O)[O-])o1", "Potency": "active: 8.28 µM"}
{"smiles": "Cn1ccnc1P(=S)(c1nccn1C)c1nccn1C", "Potency": "inactive"}
{"smiles": "Cc1ccc(C)c(OCc2cc(C(=O)N3C[C@@H](C)O[C@@H](C)C3)no2)c1", "Potency": "inconclusive: 2.62 µM [inhibitor, single point]"}
{"smiles": "O=c1oc2cc(O[C@@H]3OC[C@@H](O)[C@H](O)[C@H]3O)ccc2c2ccccc12", "Potency": "inactive"}
{"smiles": "O=C(CSc1nccn1Cc1ccc(F)cc1)Nc1ccc(F)cc1F", "Potency": "inactive"}
{"smiles": "O=C(CCCN1C(=O)C(c2ccccc2)Oc2cccnc21)NCc1ccccc1Cl", "note": "(stereo unspecified)", "Potency": "inactive"}
{"smiles": "N#Cc1ccc(NC(=O)c2sc3cc(C(F)(F)F)cnc3c2-c2cccs2)cc1", "Potency": "inconclusive: 10.4 µM [inhibitor, single point]"}
{"smiles": "Cc1ccc(C(=O)N2CCN(S(=O)(=O)c3ccc(C(C)C)cc3)CC2)s1", "Potency": "inconclusive: 14.7 µM [inhibitor, single point]"}
{"smiles": "O=C(N/N=C/c1ccccc1)c1n[nH]c2c1CCCC2", "Potency": "inactive"}
{"smiles": "O=C(O)c1ccc(NC(=S)NC2CCCCC2)cc1", "Potency": "inconclusive: 18.5 µM [inhibitor, single point]"}
{"smiles": "CCOc1ccc2[nH]c(=O)c(CN(Cc3cccnc3)C(=O)Nc3ccccc3OC)cc2c1", "Potency": "inconclusive: 8.28 µM [inhibitor, single point]"}
{"smiles": "O=C1c2cccc3cccc(c23)C(=O)N1CCN1CCN(CC(O)COc2ccc3ccccc3c2)CC1", "note": "(stereo unspecified)", "Potency": "inconclusive: 6.57 µM [inhibitor, partial curve, poor fit]"}
{"smiles": "Fc1ccc(/C=N/Nc2nccnc2Cl)cc1", "Potency": "inconclusive: 2.62 µM [inhibitor, single point]"}
{"smiles": "CC(C)C[C@H]1CN=C(Nc2ccccc2)N1CCC1CCCC1", "Potency": "inconclusive: 6.57 µM [inhibitor, partial curve]"}
{"smiles": "CC1Cc2nc(SCC(=O)NCc3ccco3)n(-c3ccccc3)c(=O)c2S1", "note": "(stereo unspecified)", "Potency": "inconclusive: 11.7 µM [inhibitor, single point]"}
{"smiles": "N#CCCN(C(=O)COC(=O)CCc1c[nH]c2ccccc12)c1ccccc1", "Potency": "inactive"}
{"smiles": "Cn1c(=O)c2c(nc(CN3CCN(C(=O)c4ccco4)CC3)n2CC(N)=O)n(C)c1=O", "Potency": "inactive"}
{"smiles": "COc1cc(C(=O)OCC(=O)NC23CC4CC(CC(C4)C2)C3)cc(OC)c1OC", "Potency": "inconclusive: 4.65 µM [inhibitor, partial curve, poor fit]"}
{"smiles": "CC1CCN(C(=O)Cn2nc(C(F)(F)F)c3c2CCCC3)CC1", "Potency": "inconclusive: 2.62 µM [inhibitor, full curve]"}
{"smiles": "OCC1(CCOc2ccccc2)CCN(Cc2ccccc2OC(F)F)CC1", "Potency": "inconclusive: 11.7 µM [inhibitor, single point]"}
{"smiles": "Cc1ccc(C)c(OCc2cc(C(=O)N(C)Cc3nccs3)no2)c1", "Potency": "inconclusive: 2.33 µM [inhibitor, full curve]"}
{"smiles": "CCOc1ccccc1-n1nnnc1SCc1nc2ccccc2s1", "Potency": "inactive"}
{"smiles": "CC1CCCC(NC(=O)COC(=O)c2cn(C)c3ccccc23)C1C", "note": "(stereo unspecified)", "Potency": "inconclusive: 13.1 µM [inhibitor, single point]"}
{"smiles": "O=C(O)c1ccc2c(c1)C(=O)/C(=C\\c1ccco1)C2=O", "Potency": "active: 11.7 µM"}
{"smiles": "COC(=O)c1sc(S(=O)(=O)N2CCN(c3ccc(OC)cc3)CC2)c(C(=O)OC)c1C", "Potency": "inconclusive: 11.7 µM [inhibitor, single point]"}
{"smiles": "N#C/C(=C\\c1ccccc1[N+](=O)[O-])c1nc(C2CC2)cs1", "Potency": "inactive"}
{"smiles": "COc1ccc(NC(=O)CS(=O)c2cccc(Cl)c2)cc1", "note": "(stereo unspecified)", "Potency": "inconclusive: 0.0037 µM [inhibitor, full curve, poor fit]"}
{"smiles": "COc1ccccc1N(CC(=O)NC(C)(C)C)C(=O)CCC(=O)Nc1ccccn1", "Potency": "inconclusive: 18.5 µM [inhibitor, single point]"}
{"smiles": "CN(C)c1ccc(NC(=O)CCn2c(=S)oc3ccccc32)cc1", "Potency": "inactive"}
{"smiles": "COCCNc1oc(-c2ccc(Cl)cc2)nc1C#N", "Potency": "inconclusive: 18.5 µM [inhibitor, single point]"}
{"smiles": "Cc1[nH]n(-c2ccccc2)c(=O)c1-c1cccc(Cl)c1", "Potency": "active: 1.47 µM"}
{"smiles": "COc1ccc(NC(=O)c2cc3ccccc3oc2=O)c(OC)c1", "Potency": "inconclusive: 18.5 µM [inhibitor, single point]"}
{"smiles": "O=C(NCc1ccc(F)cc1)C(c1ccco1)N(C(=O)c1csnn1)C1CC1", "note": "(stereo unspecified)", "Potency": "inactive"}
{"smiles": "CN(C)N1C(N)=C(C#N)C(c2cccs2)C2=C1CCCC2=O", "note": "(stereo unspecified)", "Potency": "inconclusive: 4.65 µM [inhibitor, partial curve]"}
{"smiles": "COc1ccc(OCC(=O)Nc2ccc(S(=O)(=O)N3CCN(C)CC3)cc2)cc1", "Potency": "inconclusive: 18.5 µM [inhibitor, single point]"}
{"smiles": "COC(=O)C1=C(C)N(C)C(=S)NC1c1ccc(OC)cc1OC", "note": "(stereo unspecified)", "Potency": "inactive"}
{"smiles": "CCOC(=O)c1c(C)oc2ccc(OC(=O)N3CCOCC3)cc12", "Potency": "inconclusive: 0.0026 µM [inhibitor, full curve, poor fit]"}
{"smiles": "Cc1nc(Oc2ccccc2)c2ccsc2n1", "Potency": "inactive"}
{"smiles": "COc1ccc(CN2C(=O)NC(C)(c3ccc(C)cc3)C2=O)cc1F", "note": "(stereo unspecified)", "Potency": "inconclusive: 10.4 µM [inhibitor, single point]"}
{"smiles": "Cc1cc(C)nc(NS(=O)(=O)c2ccc(N/C=C\\C(=O)c3ccc(Cl)cc3)cc2)n1", "Potency": "inconclusive: 0.329 µM [inhibitor, partial curve, poor fit]"}
{"smiles": "CC1CCCC(C)N1CCCNC(=O)Cn1ncc2c3ccccc3n(C)c2c1=O", "note": "(stereo unspecified)", "Potency": "inconclusive: 5.22 µM [inhibitor, partial curve]"}
{"smiles": "COCc1cc(/C=N\\NC(=O)Cc2ccc(OC)cc2)ccc1OC", "Potency": "inactive"}
{"smiles": "Cc1ccc(-c2[nH]n3c(=O)c4c(nc3c2C)CCCC4)cc1", "Potency": "inactive"}
{"smiles": "COc1cc(C(=O)Oc2ccccc2/C=N/NC(=O)c2ccc(Cl)cc2Cl)cc(OC)c1OC", "Potency": "inconclusive: 9.28 µM [inhibitor, partial curve]"}
{"smiles": "O=C(c1ccccc1)c1ccc2n1CCC2C(=O)O", "note": "(stereo unspecified)", "Potency": "inconclusive: 1.65 µM [inhibitor, full curve]"}
{"smiles": "COC(=O)C1(C)NC(c2ccccc2F)C2C(=O)N(c3ccccc3)C(=O)C21", "note": "(stereo unspecified)", "Potency": "inconclusive: 14.7 µM [inhibitor, partial curve]"}
{"smiles": "Cc1nc(N/C(N)=N/S(=O)(=O)c2ccc([N+](=O)[O-])cc2)nc2ccccc12", "Potency": "inconclusive: 18.5 µM [inhibitor, single point]"}
{"smiles": "O=C(CCc1nnc(CCc2ccccc2)o1)N1CCCC1c1nccs1", "note": "(stereo unspecified)", "Potency": "active: 13.1 µM"}
{"smiles": "COc1ccc(C(=O)O/N=C/c2c(C(F)(F)F)nn(C)c2SCc2ccccc2Cl)cc1", "Potency": "inactive"}
{"smiles": "Cc1nc(C)n(CCNS(=O)(=O)c2ccccc2)n1", "Potency": "inactive"}
{"smiles": "CC1CCCN(S(=O)(=O)c2ccc(C(=O)Nc3ccccc3-c3nc4ccccc4[nH]3)cc2)C1", "note": "(stereo unspecified)", "Potency": "inconclusive: 0.586 µM [inhibitor, partial curve, poor fit]"}
{"smiles": "Cc1cccc(C)c1N(CC(=O)Nc1cc(Cl)ccc1Oc1ccccc1)S(C)(=O)=O", "Potency": "inconclusive: 1.31 µM [inhibitor, partial curve]"}
{"smiles": "CCN(CC(=O)Nc1cccc(OC)c1)C(=O)c1cccc(S(=O)(=O)N2CCc3ccccc32)c1", "Potency": "inconclusive: 1.47 µM [inhibitor, partial curve, poor fit]"}
{"smiles": "CCCOc1ccc(N2CC(C(=O)NCCc3ccc(OC)c(OC)c3)CC2=O)cc1", "note": "(stereo unspecified)", "Potency": "inactive"}
{"smiles": "Cn1c(CCN2CCCC2)nc2cc(NS(=O)(=O)c3ccc(Cl)cc3)ccc21", "Potency": "inconclusive: 11.7 µM [inhibitor, single point]"}
{"smiles": "O=C(C(Cl)Cl)N1CCN(Cc2ccc3c(c2)OCO3)CC1", "Potency": "inactive"}
{"smiles": "COc1cc2nc(CN3CCN(c4ncc(C(F)(F)F)cc4Cl)CC3)[nH]c(=O)c2cc1OC", "Potency": "inconclusive: 5.86 µM [inhibitor, partial curve, poor fit]"}
{"smiles": "Cc1c(Br)c(C(=O)NNC(=O)c2ccc(C(C)(C)C)cc2)nn1C", "Potency": "inactive"}
{"smiles": "Cc1cc(C)cc(C(=O)Nc2c3c(nn2C(C)(C)C)CS(=O)(=O)C3)c1", "Potency": "inconclusive: 2.08 µM [inhibitor, partial curve]"}
{"smiles": "Cc1[nH]c(-c2ccc(F)cc2)cc1C(=O)N1CCN(c2ccccc2F)CC1", "Potency": "active: 3.7 µM"}
{"smiles": "O=C(O)CCn1cc(/C=C/C(=O)c2ccc(Cl)cc2)c(-c2cccc(Br)c2)n1", "Potency": "inconclusive: 13.1 µM [inhibitor, single point]"}
{"smiles": "Cc1nn(-c2ccccc2)c(C)c1/C=N/NC(=O)c1cc(O)cc(O)c1", "Potency": "inconclusive: 18.5 µM [inhibitor, single point]"}
{"smiles": "c1ccc2c(c1)ncn2-c1ccc(-c2ccnc(-c3ccncc3)n2)cc1", "Potency": "inconclusive: 16.5 µM [inhibitor, single point]"}
